Experimental data: PubChem BioAssay AID1259405 (NCATS, 2018)
In all, the deposit lists about 50,000 reagents; below is an unselected part. About 4,000 of all reagents (8%) count as active. 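Mouse siRNA library applied to hamster cells; one well for each siRNA.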 Reagents against one gene are numbered here.

Screen: 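Silenced genes that increase secreted GFP made by CHO cells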 (primary screen)
Cells: Chinese hamster CHO-K1 ovary cells with stable secreted eGFP expression
Knock-down reagent: single siRNA against mouse genes, 0.8 pmol siRNA per well (2 µl of 400 nM stock)
Timing: 3 days
Read-out: 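Per-well intracellular GFP measured by laser scanning cytometry, plus viability from ATP luminescence, each relative to plate median of non-targeting control wells, in %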
Scale: GFP, % of control: higher = more GFP per well, higher productivity; viability (ATP), % of control: higher = more viable cells (more ATP)
Call rule: 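a knock-down is called active if GFP reaches 120% or more of non-targeting control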

no.	Gene	reagent	GFP, % of control	viability (ATP), % of control	outcome
1	Scml2 (Scm polycomb group protein like 2)	1	70.5	68.2	inactive
2	Scml2 (Scm polycomb group protein like 2)	2	81.4	83.1	inactive
3	Scml2 (Scm polycomb group protein like 2)	3	65.9	78	inactive
4	Ramp2 (receptor (calcitonin) activity modifying protein 2)	1	71.9	111	inactive
5	Ramp2 (receptor (calcitonin) activity modifying protein 2)	2	48.4	40.8	inactive
6	Ramp2 (receptor (calcitonin) activity modifying protein 2)	3	57.3	90.5	inactive
7	Cx3cr1 (C-X3-C motif chemokine receptor 1)	1	117	94.7	inactive
8	Cx3cr1 (C-X3-C motif chemokine receptor 1)	2	74.4	60.1	inactive
9	Cx3cr1 (C-X3-C motif chemokine receptor 1)	3	94.2	71.1	inactive
10	Fabp7 (fatty acid binding protein 7, brain)	1	124	109	active
11	Fabp7 (fatty acid binding protein 7, brain)	2	64.4	73.5	inactive
12	Fabp7 (fatty acid binding protein 7, brain)	3	45.6	59.2	inactive
13	Pced1a (PC-esterase domain containing 1A)	1	79.3	65.1	inactive
14	Pced1a (PC-esterase domain containing 1A)	2	72.4	68.1	inactive
15	Pced1a (PC-esterase domain containing 1A)	3	81.8	96.7	inactive
16	Slc39a14	1	82.6	35.7	inactive
17	Slc39a14	2	122	72.9	active
18	Slc39a14	3	54.5	68	inactive
19	Ell3 (elongation factor RNA polymerase II-like 3)	1	72.8	91.3	inactive
20	Ell3 (elongation factor RNA polymerase II-like 3)	2	112	64.4	inactive
21	Ell3 (elongation factor RNA polymerase II-like 3)	3	94.7	85.1	inactive
22	Acrv1 (acrosomal vesicle protein 1)	1	96.3	89.7	inactive
23	Acrv1 (acrosomal vesicle protein 1)	2	78	52.4	inactive
24	Acrv1 (acrosomal vesicle protein 1)	3	80.4	82.6	inactive
25	Gsr (glutathione reductase)	1	80.1	85.6	inactive
26	Gsr (glutathione reductase)	2	64	68.6	inactive
27	Gsr (glutathione reductase)	3	81.9	73.1	inactive
28	Atp6v1g3 (ATPase, H+ transporting, lysosomal V1 subunit G3)	1	63.3	103	inactive
29	Atp6v1g3 (ATPase, H+ transporting, lysosomal V1 subunit G3)	2	54.6	93	inactive
30	Atp6v1g3 (ATPase, H+ transporting, lysosomal V1 subunit G3)	3	43.6	72	inactive
31	Isg15 (ISG15 ubiquitin-like modifier)	1	57.7	53.2	inactive
32	Isg15 (ISG15 ubiquitin-like modifier)	2	89	39.5	inactive
33	Isg15 (ISG15 ubiquitin-like modifier)	3	68	75.5	inactive
34	Armcx2 (armadillo repeat containing, X-linked 2)	1	86.5	80.2	inactive
35	Armcx2 (armadillo repeat containing, X-linked 2)	2	62.5	62.3	inactive
36	Armcx2 (armadillo repeat containing, X-linked 2)	3	70.2	64.1	inactive
37	Peds1 (plasmanylethanolamine desaturase 1)	1	124	71.5	active
38	Peds1 (plasmanylethanolamine desaturase 1)	2	4.22	9.67	inactive
39	Peds1 (plasmanylethanolamine desaturase 1)	3	108	96.7	inactive
40	Pdx1 (pancreatic and duodenal homeobox 1)	1	70.8	76.8	inactive
41	Pdx1 (pancreatic and duodenal homeobox 1)	2	81.4	56.4	inactive
42	Pdx1 (pancreatic and duodenal homeobox 1)	3	82.8	108	inactive
43	Nudt9 (nudix hydrolase 9)	1	51.1	86.1	inactive
44	Nudt9 (nudix hydrolase 9)	2	86	76.9	inactive
45	Fam234a (family with sequence similarity 234, member A)	1	87.2	40.9	inactive
46	Fam234a (family with sequence similarity 234, member A)	2	95.4	78.1	inactive
47	Fam234a (family with sequence similarity 234, member A)	3	89.1	71.6	inactive
48	Vhl (von Hippel-Lindau tumor suppressor)	1	29.5	43.9	inactive
49	Vhl (von Hippel-Lindau tumor suppressor)	2	110	84	inactive
50	Vhl (von Hippel-Lindau tumor suppressor)	3	65.7	107	inactive
51	Or8a1b (olfactory receptor family 8 subfamily A member 1B)	1	65.9	53.5	inactive
52	Or8a1b (olfactory receptor family 8 subfamily A member 1B)	2	104	39.2	inactive
53	Or8a1b (olfactory receptor family 8 subfamily A member 1B)	3	61.5	92.2	inactive
54	Zfp353-ps (zinc finger protein 353, pseudogene)	1	86.2	55.8	inactive
55	Zfp353-ps (zinc finger protein 353, pseudogene)	2	53	74.7	inactive
56	Zfp353-ps (zinc finger protein 353, pseudogene)	3	74	73.7	inactive
57	Wdr36 (WD repeat domain 36)	1	69.2	31.1	inactive
58	Wdr36 (WD repeat domain 36)	2	85.1	59.4	inactive
59	Wdr36 (WD repeat domain 36)	3	119	50.9	inactive

Entries listed so far whose gene name starts with C or c:
Gene	reagent	GFP, % of control	viability (ATP), % of control	outcome
Cx3cr1 (C-X3-C motif chemokine receptor 1)	1	117	94.7	inactive
Cx3cr1 (C-X3-C motif chemokine receptor 1)	2	74.4	60.1	inactive
Cx3cr1 (C-X3-C motif chemokine receptor 1)	3	94.2	71.1	inactive
